This note sets out measurements from paper PMC9424285.

In test [1] the target is T1, phospholipase C-γ1 (PLC-γ1) (human (endogenous in KYSE410 and KYSE510)) (UniProt P19174).
T1 sequence: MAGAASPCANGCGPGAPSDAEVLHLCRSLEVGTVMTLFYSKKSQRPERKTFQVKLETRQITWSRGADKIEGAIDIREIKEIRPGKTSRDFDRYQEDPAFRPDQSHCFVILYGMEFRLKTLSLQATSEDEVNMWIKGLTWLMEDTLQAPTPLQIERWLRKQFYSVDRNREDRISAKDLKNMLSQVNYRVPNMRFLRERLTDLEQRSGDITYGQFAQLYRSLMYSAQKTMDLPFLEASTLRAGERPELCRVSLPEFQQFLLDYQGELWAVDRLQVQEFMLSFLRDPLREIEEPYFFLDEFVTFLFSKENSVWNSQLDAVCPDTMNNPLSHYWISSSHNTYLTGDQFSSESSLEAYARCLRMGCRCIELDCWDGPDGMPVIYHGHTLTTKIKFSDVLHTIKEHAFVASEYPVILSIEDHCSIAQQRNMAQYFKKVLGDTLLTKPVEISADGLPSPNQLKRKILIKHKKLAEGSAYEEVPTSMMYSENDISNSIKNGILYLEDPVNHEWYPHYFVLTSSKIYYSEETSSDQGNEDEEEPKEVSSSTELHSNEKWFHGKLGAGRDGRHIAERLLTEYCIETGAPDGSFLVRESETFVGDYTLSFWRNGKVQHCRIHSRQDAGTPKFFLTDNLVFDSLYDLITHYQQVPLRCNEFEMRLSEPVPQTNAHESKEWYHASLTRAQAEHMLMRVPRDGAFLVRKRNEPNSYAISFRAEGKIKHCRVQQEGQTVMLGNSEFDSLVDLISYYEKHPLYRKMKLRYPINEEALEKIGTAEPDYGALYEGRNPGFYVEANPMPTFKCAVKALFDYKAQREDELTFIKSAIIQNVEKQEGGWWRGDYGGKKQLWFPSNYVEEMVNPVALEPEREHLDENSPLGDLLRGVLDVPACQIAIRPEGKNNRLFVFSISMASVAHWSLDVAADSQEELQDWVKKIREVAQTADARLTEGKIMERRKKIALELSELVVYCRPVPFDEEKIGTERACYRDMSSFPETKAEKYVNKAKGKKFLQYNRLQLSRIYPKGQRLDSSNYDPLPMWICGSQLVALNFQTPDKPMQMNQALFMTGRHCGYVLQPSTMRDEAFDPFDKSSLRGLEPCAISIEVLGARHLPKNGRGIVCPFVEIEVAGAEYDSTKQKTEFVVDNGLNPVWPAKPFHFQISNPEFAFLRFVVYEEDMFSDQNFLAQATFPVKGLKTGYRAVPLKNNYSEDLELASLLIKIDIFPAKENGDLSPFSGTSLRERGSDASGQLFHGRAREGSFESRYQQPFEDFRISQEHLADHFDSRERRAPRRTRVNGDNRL
Put plainly: co-IP; immunoprecipitation-immunoblotting of KYSE410 or KYSE510 cells treated with CCL22 (50 ng/ml); PLC-γ1 against its partners.

Test [2] has as its target T2, C-C motif chemokine receptor 4 (CCR4) (human (endogenous in KYSE410 and KYSE510)) (UniProt P51679).
T2 sequence: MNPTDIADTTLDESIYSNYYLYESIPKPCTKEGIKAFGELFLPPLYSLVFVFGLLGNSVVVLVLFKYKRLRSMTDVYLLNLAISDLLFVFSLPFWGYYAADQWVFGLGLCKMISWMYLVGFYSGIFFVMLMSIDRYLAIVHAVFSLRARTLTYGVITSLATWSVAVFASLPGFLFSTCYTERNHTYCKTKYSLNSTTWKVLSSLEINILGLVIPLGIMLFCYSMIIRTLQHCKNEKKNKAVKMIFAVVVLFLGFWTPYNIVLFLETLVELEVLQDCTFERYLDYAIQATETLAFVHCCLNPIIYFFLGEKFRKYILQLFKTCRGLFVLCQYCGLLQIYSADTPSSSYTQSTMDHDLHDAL
Put plainly: co-IP; immunoprecipitation-immunoblotting of KYSE410 and KYSE510 cells treated with CM from pol-TAMs, CM from pri-TAMs or CCL22 (50 ng/ml).

The target of test [3] is T2, C-C motif chemokine receptor 4 (CCR4) (human (endogenous in KYSE410 and KYSE510)). Description: condition: only with the anti-CCL22 Ab (50 μg/ml) added to the pol-TAM or pri-TAM CM; co-IP; immunoprecipitation-immunoblotting of KYSE410 and KYSE510 cells treated with CM from pol-TAMs or pri-TAMs together with the anti-CCL22 antibody (50 μg/ml).

These are yes or no findings as the source states them, for the method shown. In cells and extracts the contact can be indirect. For some assays here: Binding can be weak; no strength is given.

As for AKT (enzyme), the binding entry in test [1] and in test [2] was “no binding” throughout. With FAK N-terminus (domain or fragment), in test [2], the binding entry is recorded as “no binding”.

As for FAK C-terminus (domain or fragment), the binding result is reported as “no binding” in test [3] and “binds” in test [2].
